By UniProt entry, the sequences of proteins in these tests, tags left out.
UniProt P04637, whole entry, looked up: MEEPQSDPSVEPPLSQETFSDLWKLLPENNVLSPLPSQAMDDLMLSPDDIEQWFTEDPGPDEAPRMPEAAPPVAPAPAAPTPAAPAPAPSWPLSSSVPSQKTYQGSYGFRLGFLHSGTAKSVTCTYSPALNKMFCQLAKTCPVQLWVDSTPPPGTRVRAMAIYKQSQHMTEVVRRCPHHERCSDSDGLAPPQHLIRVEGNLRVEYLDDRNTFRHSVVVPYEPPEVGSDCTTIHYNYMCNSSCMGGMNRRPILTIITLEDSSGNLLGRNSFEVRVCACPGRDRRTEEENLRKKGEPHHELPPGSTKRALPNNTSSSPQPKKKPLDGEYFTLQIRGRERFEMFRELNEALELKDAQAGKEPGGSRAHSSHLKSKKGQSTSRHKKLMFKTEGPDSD

Values joined by “and” are separate entries in the source; they are usually repeats but may differ in a detail not shown here. Equal values may be shown once. Inconclusive results, whose numbers are uncertain, are shown with a selection of clear calls. Potencies of inconclusive entries are doubtful fits and often do not repeat. Where a structure was tested more than once in an assay, its records may differ in their call. Active and inactive are the calls of the source. Rule for the calls: active = hit-call score of the fitted dose curve at least 0.9, where 1 is the maximum; inconclusive = response in the unintended direction; inactive = score below 0.9.
These compounds were tested against Cellular tumor antigen p53 (Homo sapiens) (UniProt P04637) (assay: TOX21_p53_BLA_p3_ratio: Tox21 HCT-116 p53 Agonism Beta-lactamase Assay, Ratio, Phase 3 (AID 2283596)).
Summary of the method: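 Cells were seeded at 4000/well, rested 5 h at 37C, then dosed with DMSO compound solutions (217-fold dilution) for 16 h. CCF4-AM substrate was loaded for 2 h at room temperature, and the 460/530 nm emission ratio was fitted for gain of signal versus DMSO.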
With `CCCCCCOC(=O)c1ccc(O)cc1` the AC50 was active: 86 µM.
With `CCOC(=O)c1ccccc1C` the AC50 was inconclusive: 46.1 µM.
For `CC(C)(c1cc(Br)c(OCCO)c(Br)c1)c1cc(Br)c(OCCO)c(Br)c1`, the AC50 was active: 19.9 µM.
`CN1[C@@H]2CC(OC(=O)[C@H](CO)c3ccccc3)C[C@H]1[C@@H]1O[C@@H]12` (some centres undefined) was tested, and the AC50 was inconclusive: 46.1 µM.
`CC(=O)O[C@]1(C(C)=O)CC[C@H]2[C@@H]3C[C@H](C)C4=CC(=O)CC[C@]4(C)[C@H]3CC[C@@]21C` was tested, and the AC50 was inconclusive: 8.52 µM.
In the case of `O=C(c1cc(O)c(O)c(O)c1)c1ccc(O)c(O)c1O`, the AC50 is reported as active: 60.9 µM and active: 84.5 µM.
With `CC(C)=CCl` the AC50 was inconclusive: 46.1 µM.
`O=C(/C=C/C=C/c1ccc2c(c1)OCO2)N1CCCCC1` was tested, and the AC50 was inconclusive: 46.1 µM and inconclusive: 84.7 µM.
For `CC1=C(/C=C/C(C)=C/C=C/C(C)=C/C(=O)O)C(C)(C)CCC1`, the AC50 was active: 85.7 µM.
In the case of `COC(=O)c1cccnc1`, the AC50 is reported as inconclusive: 46.1 µM.
For `O=C(Nc1ccc(Cl)c(Cl)c1)c1cc(Cl)cc(Cl)c1O`, the AC50 was active: 0.434 µM.
For `CC(C)(C)CC(C)(C)c1ccc(OCCOCC[N+](C)(C)Cc2ccccc2)cc1`, the AC50 was active: 61 µM.
In the case of `CCCCCCCCCCCCCCCC(=O)OC/C=C(C)/C=C/C=C(C)/C=C/C1=C(C)CCCC1(C)C`, the outcome is reported as “inactive”.
For `C=CC(=O)OCCn1c(=O)n(CCOC(=O)C=C)c(=O)n(CCOC(=O)C=C)c1=O`, the AC50 was inconclusive: 46.1 µM.
`COc1ccc(C(=O)/C(Br)=C\C(=O)O)cc1` was tested, and the AC50 was active: 14.4 µM and active: 25.8 µM.
For `CNC(=C[N+](=O)[O-])NCCSCc1ccc(CN(C)C)o1`, the AC50 was inconclusive: 46.1 µM and inconclusive: 39.7 µM.
For `SCCc1cnccn1`, the AC50 was active: 21.6 µM.
For `O=S1(=O)CC(Cl)(Cl)C(Cl)(Cl)C1`, the AC50 was active: 47.6 µM.
`C=CCOC(=O)CCC1CCCCC1` was tested, and the outcome was “inactive”.
